Common to all, as to test: co-IP; 293T cells transfected with V5-tagged MIEF1, MIEF2 or deletion mutants, in vivo crosslinked with 1% formaldehyde (10 min, room temperature), lysed in 1% NP-40 with sonication; anti-V5 agarose beads 2 h at room temperature; Western blot of endogenous partners
For test [1], the target named is T1, MIEF1^Δ109-154 (V5-tagged, self-association-deficient mutant) (human) (UniProt Q9NQG6).
T1 sequence: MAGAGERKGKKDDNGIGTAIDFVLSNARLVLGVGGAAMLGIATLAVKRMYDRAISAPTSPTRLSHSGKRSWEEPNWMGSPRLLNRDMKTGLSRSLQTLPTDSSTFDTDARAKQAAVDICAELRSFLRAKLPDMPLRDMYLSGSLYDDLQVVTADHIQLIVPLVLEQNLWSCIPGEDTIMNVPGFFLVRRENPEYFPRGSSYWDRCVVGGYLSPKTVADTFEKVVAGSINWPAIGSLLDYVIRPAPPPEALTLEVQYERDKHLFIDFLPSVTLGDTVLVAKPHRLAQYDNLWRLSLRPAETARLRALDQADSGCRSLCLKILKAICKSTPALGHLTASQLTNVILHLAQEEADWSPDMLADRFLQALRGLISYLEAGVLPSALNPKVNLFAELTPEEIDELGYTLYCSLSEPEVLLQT

By UniProt entry, the sequences of proteins in these tests, tags left out.
UniProt O00429: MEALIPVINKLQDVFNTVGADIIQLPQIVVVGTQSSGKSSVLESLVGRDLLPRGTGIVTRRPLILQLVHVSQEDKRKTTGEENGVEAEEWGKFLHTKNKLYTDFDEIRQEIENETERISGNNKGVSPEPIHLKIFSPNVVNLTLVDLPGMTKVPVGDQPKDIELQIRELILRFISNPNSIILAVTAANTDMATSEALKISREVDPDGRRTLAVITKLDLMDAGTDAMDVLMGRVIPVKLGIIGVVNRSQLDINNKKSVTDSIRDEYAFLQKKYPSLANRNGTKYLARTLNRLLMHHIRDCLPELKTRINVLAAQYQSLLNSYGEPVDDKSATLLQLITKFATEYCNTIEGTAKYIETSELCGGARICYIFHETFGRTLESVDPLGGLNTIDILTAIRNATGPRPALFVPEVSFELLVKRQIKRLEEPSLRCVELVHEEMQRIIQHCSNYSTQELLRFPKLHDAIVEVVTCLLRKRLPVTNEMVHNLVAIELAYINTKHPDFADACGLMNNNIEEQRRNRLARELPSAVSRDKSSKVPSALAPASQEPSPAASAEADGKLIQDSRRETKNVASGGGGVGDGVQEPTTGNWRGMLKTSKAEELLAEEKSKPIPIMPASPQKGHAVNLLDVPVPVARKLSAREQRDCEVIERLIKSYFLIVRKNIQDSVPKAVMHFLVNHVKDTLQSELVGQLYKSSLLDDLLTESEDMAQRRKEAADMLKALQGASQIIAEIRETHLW

For test [2], the target named is T2, MIEF1^Δ173-216 (V5-tagged) (human) (UniProt Q9NQG6).
T2 sequence: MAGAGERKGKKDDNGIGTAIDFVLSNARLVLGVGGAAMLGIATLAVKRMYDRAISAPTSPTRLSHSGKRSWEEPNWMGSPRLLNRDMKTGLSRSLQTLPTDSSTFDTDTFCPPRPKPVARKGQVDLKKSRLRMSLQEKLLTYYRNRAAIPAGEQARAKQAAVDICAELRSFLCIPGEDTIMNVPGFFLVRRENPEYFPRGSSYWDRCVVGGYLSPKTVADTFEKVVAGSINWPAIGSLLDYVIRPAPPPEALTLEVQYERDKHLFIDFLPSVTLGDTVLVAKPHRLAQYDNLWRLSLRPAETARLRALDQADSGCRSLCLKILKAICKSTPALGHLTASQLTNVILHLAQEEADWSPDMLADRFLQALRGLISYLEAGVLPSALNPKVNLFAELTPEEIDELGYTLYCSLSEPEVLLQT

Test [3] concerns the target T3, MIEF1^Δ219-289 (V5-tagged) (human) (UniProt Q9NQG6).
T3 sequence: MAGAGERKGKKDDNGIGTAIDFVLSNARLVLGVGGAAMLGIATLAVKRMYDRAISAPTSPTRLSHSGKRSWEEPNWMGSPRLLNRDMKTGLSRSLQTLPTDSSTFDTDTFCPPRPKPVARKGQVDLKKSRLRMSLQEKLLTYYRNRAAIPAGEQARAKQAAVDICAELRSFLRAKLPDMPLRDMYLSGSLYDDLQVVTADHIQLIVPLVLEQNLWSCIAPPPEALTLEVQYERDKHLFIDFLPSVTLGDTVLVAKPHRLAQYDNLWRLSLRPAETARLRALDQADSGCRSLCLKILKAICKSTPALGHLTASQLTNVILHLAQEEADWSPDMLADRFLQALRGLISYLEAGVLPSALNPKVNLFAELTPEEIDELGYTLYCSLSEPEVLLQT

Test [4] has as its target T4, MIEF1^Δ50-108 (V5-tagged) (human) (UniProt Q9NQG6).
T4 sequence: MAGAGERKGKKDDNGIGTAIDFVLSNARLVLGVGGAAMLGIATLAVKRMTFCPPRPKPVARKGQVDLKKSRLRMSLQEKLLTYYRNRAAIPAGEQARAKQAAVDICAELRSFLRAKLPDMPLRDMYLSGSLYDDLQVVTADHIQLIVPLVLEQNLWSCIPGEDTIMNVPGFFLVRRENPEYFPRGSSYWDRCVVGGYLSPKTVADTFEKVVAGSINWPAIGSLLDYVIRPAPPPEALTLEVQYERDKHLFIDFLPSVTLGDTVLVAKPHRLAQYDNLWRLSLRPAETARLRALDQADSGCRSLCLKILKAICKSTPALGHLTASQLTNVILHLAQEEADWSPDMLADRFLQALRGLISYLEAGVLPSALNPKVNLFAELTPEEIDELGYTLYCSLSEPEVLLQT

The target of test [5] is T5, MIEF2^Δ50-104 (V5-tagged, self-association-deficient mutant) (human) (UniProt Q96C03).
T5 sequence: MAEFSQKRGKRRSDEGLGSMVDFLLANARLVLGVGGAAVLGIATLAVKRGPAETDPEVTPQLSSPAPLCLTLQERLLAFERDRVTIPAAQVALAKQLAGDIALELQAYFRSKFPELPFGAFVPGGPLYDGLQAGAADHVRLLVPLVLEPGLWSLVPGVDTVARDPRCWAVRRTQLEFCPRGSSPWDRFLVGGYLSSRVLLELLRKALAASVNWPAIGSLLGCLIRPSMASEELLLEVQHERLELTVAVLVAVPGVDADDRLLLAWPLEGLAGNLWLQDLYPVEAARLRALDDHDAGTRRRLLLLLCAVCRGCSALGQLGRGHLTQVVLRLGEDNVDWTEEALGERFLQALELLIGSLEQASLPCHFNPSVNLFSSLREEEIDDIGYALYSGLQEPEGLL

These are yes or no findings as the source states them, for the method shown. In cells and extracts the contact can be indirect. Some results given as binding are weak or reduced against the parent protein; the word gives no strength. Sequences can lack the tags named with a protein.

As to “dynamin-related protein 1 (Drp1), endogenous (from UniProt O00429 1-736)”, the binding entry in test [1] is given as “binds”; in test [2] it was “no binding”; in test [3] it was “no binding”; in test [4] it was “binds”; in test [5], “binds”.

These data come from article PMC8532385.
